Assay results: PubChem BioAssay AID248 (DTP/NCI, 2004)
The list shows only some results of the screen, not a fair sample: it gathers some chemical classes. Other doses and runs of a compound may be missing. T/C is the treated group as % of the vehicle group. Some entries give survivors of the animals treated and no T/C: the source files T/C as zero there, which appears to mark a toxic dose or a test without result, not a measured value. Some doses without a T/C left all or most animals alive at the check, yet need not have been tolerated: the source hardly ever lists a survival T/C far under the control, and the zero likely stands for such cases as well. Survivors were counted at the toxicity check, usually on the fifth day, unless a day is given; later deaths do not show. Schedule codes are those of the source, read here as Q, the interval in days (D) or hours (H), X, the number of doses. Some metal complexes and salts are drawn in pieces, as in the source, so charges may not balance. For survival time, this PubChem deposit counts one and a half times the control or more as active, and values a quarter to a half above the control carry no call in these data; other NCI protocols may use other cut-offs. Some T/C values carry the count of animals alive at the toxicity check (mostly the fifth day); without a count or a note in brackets, all were alive then. Some entries hold several experiments; the results are listed from low to high. Marks such as (2×) give the number of equal values in this list. Some T/C values are marked as having no survivor count here; that says nothing about deaths at the dose.

System: L1210 leukemia ip in BDF1 mice, survival T/C
Assay: NCI In Vivo Anticancer Drug Screen. Data for tumor model L1210 Leukemia (intraperitoneal) in B6D2F1 (BDF1) mice
Details: T/C endpoint: mean survival time, higher T/C = longer survival
[1] = dose: 50.0 mg/kg/injection, schedule: Q01DX001 (ip), vehicle: saline
[2] = dose: 100.0 mg/kg/injection, schedule: Q01DX001 (ip), vehicle: saline
[3] = dose: 200.0 mg/kg/injection, schedule: Q01DX001 (ip), vehicle: saline
[4] = dose: 400.0 mg/kg/injection, schedule: Q01DX001 (ip), vehicle: saline
[5] = dose: 100.0 mg/kg/injection, schedule: Q04DX003 (ip), vehicle: saline with Tween-80
[6] = dose: 200.0 mg/kg/injection, schedule: Q04DX003 (ip), vehicle: saline with Tween-80
[7] = dose: 400.0 mg/kg/injection, schedule: Q04DX003 (ip), vehicle: saline with Tween-80
[8] = dose: 100.0 mg/kg/injection, schedule: Q01DX009 (ip), vehicle: Klucel (hydroxypropylcellulose) (HPC)
[9] = dose: 200.0 mg/kg/injection, schedule: Q01DX009 (ip), vehicle: Klucel (hydroxypropylcellulose) (HPC)
[10] = dose: 50.0 mg/kg/injection, schedule: Q01DX009 (ip), vehicle: saline with Tween-80
[11] = dose: 300.0 mg/kg/injection, schedule: Q01DX001 (ip), vehicle: saline

O=C1C2CCCCC1C(N1CCCC1)CC2 (stereo not drawn)
T/C (dose: 75.0 mg/kg/injection, schedule: Q01DX009 (ip), vehicle: Klucel (hydroxypropylcellulose) (HPC)): 101 % of control
T/C (dose: 100.0 mg/kg/injection, schedule: Q01DX001 (ip), vehicle: Klucel (hydroxypropylcellulose) (HPC)): 93 % of control
T/C (dose: 150.0 mg/kg/injection, schedule: Q01DX009 (ip), vehicle: Klucel (hydroxypropylcellulose) (HPC)): 90 % of control
T/C (dose: 200.0 mg/kg/injection, schedule: Q01DX001 (ip), vehicle: Klucel (hydroxypropylcellulose) (HPC)): 103 % of control
T/C (dose: 300.0 mg/kg/injection, schedule: Q01DX009 (ip), vehicle: Klucel (hydroxypropylcellulose) (HPC)): 98 % of control
T/C (dose: 400.0 mg/kg/injection, schedule: Q01DX001 (ip), vehicle: Klucel (hydroxypropylcellulose) (HPC)): 93 % of control

O=C(NNc1ccccc1)NP(=O)(NC(=O)NNc1ccccc1)NC(=O)NNc1ccccc1
T/C [1]: 97 % of control
T/C [2]: 97 % of control
T/C [3]: 100 % of control
T/C [4]: 94 % of control

CC1C=C(Cc2ccccc2)CC(C)N1C (stereo not drawn)
T/C (dose: 50.0 mg/kg/injection, schedule: Q01DX001 (ip), vehicle: carboxymethylcellulose (CMC)): 91 % of control [survivor count not shown]
T/C (dose: 100.0 mg/kg/injection, schedule: Q01DX001 (ip), vehicle: carboxymethylcellulose (CMC)): 96 % of control [survivor count not shown]
T/C (dose: 200.0 mg/kg/injection, schedule: Q01DX001 (ip), vehicle: carboxymethylcellulose (CMC)): 94 % of control [survivor count not shown]
T/C (dose: 400.0 mg/kg/injection, schedule: Q01DX001 (ip), vehicle: carboxymethylcellulose (CMC)): 93 % of control [survivor count not shown]

CCCCC(CC)CO[P+](=O)OCC(CC)CCCC (stereo not drawn)
T/C [5]: 94 % of control
T/C [6]: 87 % of control
survivor count [7]: 2 of 6

ClC1(Cl)SC(Cl)(Cl)C(Cl)(Cl)C1(Cl)Cl
T/C (dose: 50.0 mg/kg/injection, schedule: Q01DX009 (ip), vehicle: Klucel (hydroxypropylcellulose) (HPC)): 101 % of control
T/C [8]: 106 % of control
T/C [5]: 95 % of control
survivor count [9]: 5 of 6
T/C [6]: 95 % of control
survivor count [7]: 3 of 6

COP1OC(C)C(C)O1 (stereo not drawn)
T/C [2]: 98 % of control
T/C [3]: 96 % of control
T/C [4]: 113 % of control [3 of 4 alive]

O=[N+]([O-])c1ccc(Cl)c2c1no[n+]2[O-]
T/C (dose: 10.0 mg/kg/injection, schedule: Q04DX003 (ip), vehicle: saline with Tween-80): 100 % of control
T/C (dose: 20.0 mg/kg/injection, schedule: Q04DX003 (ip), vehicle: saline with Tween-80): 100 % of control [3 of 4 alive]
survivor count (dose: 40.0 mg/kg/injection, schedule: Q04DX003 (ip), vehicle: saline with Tween-80): 3 of 4

CCN(CCCl)Cc1csc2ccccc12
T/C (dose: 5.0 mg/kg/injection, schedule: Q01DX001 (ip), vehicle: saline): 107 % of control
T/C (dose: 10.0 mg/kg/injection, schedule: Q01DX001 (ip), vehicle: saline): 96 % of control
T/C (dose: 20.0 mg/kg/injection, schedule: Q01DX001 (ip), vehicle: saline): 102 % of control
T/C (dose: 40.0 mg/kg/injection, schedule: Q01DX001 (ip), vehicle: saline): 112 % of control
survivor count (dose: 80.0 mg/kg/injection, schedule: Q01DX001 (ip), vehicle: saline): 1 of 4
survivor count [2]: 0 of 4
survivor count [3]: 0 of 4
survivor count [4]: 0 of 4

NC(=NCCN1CCN=C1N[N+](=O)[O-])N[N+](=O)[O-]
T/C (dose: 50.0 mg/kg/injection, schedule: Q04DX003 (ip), vehicle: saline with Tween-80): 109 % of control
T/C [5]: 95 % of control
T/C [6]: 98 % of control

CCN(CCCl)CCOc1ccc([N+](=O)[O-])cc1
T/C (dose: 3.13 mg/kg/injection, schedule: Q01DX009 (ip), vehicle: saline): 98 % of control
T/C (dose: 6.25 mg/kg/injection, schedule: Q01DX009 (ip), vehicle: saline): 129 % of control
T/C (dose: 12.5 mg/kg/injection, schedule: Q01DX009 (ip), vehicle: saline with Tween-80): 97 % of control
survivor count (dose: 12.5 mg/kg/injection, schedule: Q01DX009 (ip), vehicle: saline): 3 of 6
survivor count (dose: 25.0 mg/kg/injection, schedule: Q01DX009 (ip), vehicle: saline with Tween-80): 2 of 6
survivor count [10]: 1 of 6

CCO[P+](=O)O.Nc1nc(N)nc(N)n1
T/C (dose: 100.0 mg/kg/injection, schedule: Q01DX009 (ip), vehicle: saline): 91 % of control [5 of 6 alive]
survivor count (dose: 200.0 mg/kg/injection, schedule: Q01DX009 (ip), vehicle: saline): 5 of 6
T/C (dose: 400.0 mg/kg/injection, schedule: Q01DX009 (ip), vehicle: saline): 87 % of control [5 of 6 alive]

CC1CN1P(=O)(Nc1ncccn1)N1CC1C (stereo not drawn)
T/C (dose: 14.0 mg/kg/injection, schedule: Q01DX015 (ip), vehicle: saline): 109 and 121 % of control
T/C (dose: 20.0 mg/kg/injection, schedule: Q01DX015 (ip), vehicle: saline): 109 % of control
T/C (dose: 24.0 mg/kg/injection, schedule: Q01DX015 (ip), vehicle: saline): 127 % of control
T/C (dose: 30.0 mg/kg/injection, schedule: Q01DX015 (ip), vehicle: saline): 120 % of control
T/C (dose: 40.0 mg/kg/injection, schedule: Q01DX015 (ip), vehicle: saline): 150 % of control
T/C (dose: 44.0 mg/kg/injection, schedule: Q01DX015 (ip), vehicle: saline): 137 % of control
T/C [1]: 107, 117, 128 % of control
T/C (dose: 66.0 mg/kg/injection, schedule: Q01DX015 (ip), vehicle: saline): 129 % of control
T/C (dose: 67.0 mg/kg/injection, schedule: Q01DX015 (ip), vehicle: saline): 132 and 188 % of control
T/C (dose: 89.0 mg/kg/injection, schedule: Q01DX001 (ip), vehicle: saline): 146 % of control
T/C (dose: 99.0 mg/kg/injection, schedule: Q01DX015 (ip), vehicle: saline): 101 % of control
T/C [2]: 107, 132, 134 % of control
T/C (dose: 100.0 mg/kg/injection, schedule: Q01DX015 (ip), vehicle: saline): 103 % of control
T/C (dose: 133.0 mg/kg/injection, schedule: Q01DX001 (ip), vehicle: saline): 152 % of control
T/C (dose: 150.0 mg/kg/injection, schedule: Q01DX015 (ip), vehicle: saline): 95 % of control
T/C [3]: 102, 117, 150 % of control (2×)
survivor count (dose: 225.0 mg/kg/injection, schedule: Q01DX015 (ip), vehicle: saline): 6 of 6
T/C [11]: 107 and 147 % of control [5 of 6 alive]
survivor count [11]: 3 of 6
T/C [4]: 117 and 121 % of control
survivor count [4]: 2 of 6

OOC1(OOC2(OO)CCCCCC2)CCCCCC1
T/C [10]: 104 % of control [survivor count not shown]
T/C (dose: 100.0 mg/kg/injection, schedule: Q01DX009 (ip), vehicle: saline with Tween-80): 104 % of control [survivor count not shown]

COc1cc([N+](=O)[O-])c(-c2c([N+](=O)[O-])cc(OC)cc2[N+](=O)[O-])c([N+](=O)[O-])c1
T/C [8]: 113 % of control [survivor count not shown]
T/C (dose: 100.0 mg/kg/injection, schedule: Q04DX003 (ip), vehicle: saline): 103 % of control [survivor count not shown]
T/C [9]: 103 % of control [survivor count not shown]
T/C (dose: 200.0 mg/kg/injection, schedule: Q04DX003 (ip), vehicle: saline): 97 % of control [survivor count not shown]
T/C (dose: 400.0 mg/kg/injection, schedule: Q01DX009 (ip), vehicle: Klucel (hydroxypropylcellulose) (HPC)): 102 % of control [survivor count not shown]
T/C (dose: 400.0 mg/kg/injection, schedule: Q04DX003 (ip), vehicle: saline): 108 % of control [survivor count not shown]
